PubChem BioAssay AID1259308, NCATS – 2017
This is an unselected part of about 59,000 reagents. Of all reagents, about 1,510 (2.6%) are marked active. 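Calls use total luciferase alone and ignore viability, so some active siRNAs may act by altering cell number.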 The numbers tell different reagents against one gene apart. Not all columns of the deposit are shown.

Aim: 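Genes whose loss raises luciferase production in HEK293 cells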 (primary screen)
Cells: human HEK293 embryonic kidney cells stably expressing firefly luciferase (HEK-CMV-Luc2-Hygro)
Reagent: single siRNA against human genes, 0.8 pmol siRNA per well
Timing: 72 h
Detection: 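Reporter luminescence and viable-cell signal on separate replicate plates, given as percent of non-targeting control and median/MAD z-scores, plus per-cell luciferase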
Reading the numbers: total luciferase, z-score: higher = more reporter protein produced
Active means: 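Active when the median/MAD z-score for overall luciferase is greater than 3; a gene was taken forward for validation with new siRNAs if at least two of its three siRNAs passed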
Calls: active = raised luciferase; inactive = no rise

total luciferase, z-score, by gene symbol and reagent
BRD2: #1 -2.17 inactive; #2 -0.908 inactive; #3 -1.43 inactive
SENP3: #1 1.59 inactive; #2 -0.388 inactive; #3 -0.177 inactive
OCIAD1: #1 0.411 inactive; #2 -0.855 inactive; #3 0.114 inactive
FER: #1 -1.38 inactive; #2 -1.78 inactive; #3 -0.318 inactive

Records above whose gene name starts with O or o:
total luciferase, z-score, by gene symbol and reagent
OCIAD1: #1 0.411 inactive; #2 -0.855 inactive; #3 0.114 inactive

The list goes on.
total luciferase, z-score, by gene symbol and reagent
NLGN1: #1 -1.11 inactive; #2 1.41 inactive; #3 1.2 inactive
ATP6V1C2: #1 0.193 inactive; #2 -0.429 inactive; #3 -1.46 inactive
HEMGN: #1 0.192 inactive; #2 0.152 inactive; #3 0.228 inactive
OR56B1: #1 -0.432 inactive; #2 0.533 inactive; #3 3.05 active
